Laboratory results published in the supplement of paper PMC12889115.
The other results are listed elsewhere or left out. Values are raw readings; no control value is given beside them.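 In the initial screen, polymyxin B was used at a concentration that permeabilizes Salmonella's outer membrane but not its inner membrane. Maximum growth was set by DMSO wells with or without polymyxin B. Since plates varied, data were ranked per plate, and compounds giving the lowest OD600 advanced as hits.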

Tested on: Salmonella enterica serovar Typhimurium SL1344
Assay: bacterial growth OD600 after 18 h with compound and polymyxin B; higher = more bacterial growth (less inhibition)
Conditions: 50 µM, Mueller-Hinton broth

| Structure (SMILES) | bacterial growth OD600 (polymyxin B 0.75 µg/mL) | bacterial growth OD600 (polymyxin B 1 µg/mL) |
| --- | --- | --- |
| CCOc1cc(CN2Cc3ccccc3OC(C)C2)ccc1OC (stereo unspecified) | 0.788 |  |
| CC(C)NC(=O)C1CCCN(C2CCN(c3nc4ccccc4o3)CC2)C1 (stereo unspecified) | 0.802 |  |
| O=C(c1cc(Cc2ccccc2Cl)no1)N1CCCC1c1nccs1 (stereo unspecified) | 0.915 |  |
| COCC(=O)N1CCC(Oc2ccc(C(=O)NCC[C@@H]3C[C@@H]4C=C[C@H]3C4)cc2)CC1 |  | 0.731 |
| Cc1cc(C)n(Cc2cc(C(=O)N3CCN(C)C[C@@H]3C(C)C)n[nH]2)n1 |  | 0.991 |
| CCOC(=O)C1(Cc2cccc(OC)c2)CCN(Cc2cccc3c2OCO3)CC1 |  | 0.758 |
| CCCc1cc(C(=O)N2CCCC(N3CCN(c4ccccc4C)CC3)C2)n(C)n1 (stereo unspecified) |  | 0.941 |
| COc1cccc(CC2(CO)CCCN(Cc3cnn(-c4ccccc4)c3)C2)c1 (stereo unspecified) |  | 0.791 |
| CC(C)c1nc2cc(C(=O)NCC3(c4ccccc4)CCOCC3)ccc2o1 | 0.826 |  |
| COCc1c(C(=O)NCc2ccc(OC)c(OC)c2)cnn1-c1nccc(-c2cc(C)sc2C)n1 | 0.715 |  |
| CCOc1ccccc1-c1nc(CN(C)C(C)c2nc(C)cs2)c(C)o1 (stereo unspecified) | 0.767 |  |
| O=C(CC(F)(F)F)NC1CC(=O)N(Cc2cccc3ccccc23)C1 (stereo unspecified) |  | 0.923 |
| CC(C)(C)C(=O)Nc1ccnn1C1CCN(Cc2c[nH]c3ccccc23)CC1 |  | 0.895 |
| CN(Cc1ccccc1)C1(C(=O)NCCc2c[nH]cn2)Cc2ccccc2C1 | 0 |  |
| O=C(Cc1ccccc1F)Nc1ccc2c(c1)CN(C(=O)Cc1cccnc1)CC2 | 0.759 |  |
| O=C1CC(NS(=O)(=O)c2ccsc2)CN1C1CCCCCC1 (stereo unspecified) |  | 0.895 |

One compound at a time, as listed above.
`CCCc1cc(C(=O)N2CCCC(N3CCN(c4ccccc4C)CC3)C2)n(C)n1` (stereo unspecified) as listed: bacterial growth OD600 (polymyxin B 1 µg/mL): 0.941
`Cc1cc(C)n(Cc2cc(C(=O)N3CCN(C)C[C@@H]3C(C)C)n[nH]2)n1` as listed: bacterial growth OD600 (polymyxin B 1 µg/mL): 0.991

Continuation:

| Structure (SMILES) | bacterial growth OD600 (polymyxin B 0.75 µg/mL) | bacterial growth OD600 (polymyxin B 1 µg/mL) |
| --- | --- | --- |
| Cc1oc(-c2ccc(NC(=O)Cc3ccccc3)cc2)nc1CNC(=O)c1ccc2ccccc2n1 | 0.771 |  |
| CSc1ccc(CC2(CCC(=O)N3CCCC(COc4ccccc4F)C3)CCC(=O)N2)cc1 (stereo unspecified) | 0.703 |  |
| O=C(C#Cc1ccccc1)N1CCC(C2(Cc3ccc(F)cc3)NC(=O)N(C3CCOC3)C2=O)CC1 (stereo unspecified) | 0.082 |  |
| COc1ccc(C(=O)N2CCCC2)c(OC2CCN(Cc3ccc(C)c(C)c3)CC2)c1 |  | 1.15 |
| Cc1ccccc1C1(CC(=O)N2CCN(CC(=O)NC(C)C)CC2)CC(=O)N(CCN(C)C)C1=O (stereo unspecified) | 0.874 |  |
| CN(Cc1cccnc1)C(=O)CC(c1ccccc1)c1ccccc1Cl (stereo unspecified) |  | 0.693 |
| CCC1CN(CCNC(=O)[C@H](CC(C)C)NC(C)=O)Cc2cc(OC)ccc2O1 (stereo partly specified) | 0.909 |  |
| O=C(c1cc[n+]([O-])cc1)N1CCC(C2CCN(Cc3cccc(F)c3F)CC2)C1 (stereo unspecified) | 0.874 |  |
| Cc1ccccc1SC1CCN(Cc2nc(-c3ccccc3)no2)CC1 |  | 0.694 |
| COCC(=O)Nc1cnn(-c2ccc(C(=O)NCCc3ccccc3OC)cc2)c1 | 0.805 |  |
| O=C(NCC1CC(Cc2ccc(F)cc2)=NO1)c1scc2c1CCCC2 (stereo unspecified) | 0.287 |  |
| COc1cc(CC2(CCC(=O)NCCc3cccc(Cl)c3)CCC(=O)N2)ccc1F (stereo unspecified) | 0.816 |  |
| Cc1nc(N2CCCC(C(=O)NCC3COc4ccccc4O3)C2)nc2cc(S(C)(=O)=O)ccc12 (stereo unspecified) | 0.766 |  |
| CC(=O)NCC(=O)N1CCCC(CNC(=O)c2ccc(F)cc2)C1 (stereo unspecified) |  | 0.965 |
| COC(=O)[C@@H](NC(=O)c1cc(COc2cccc(OC)c2)on1)C(C)C | 0.751 |  |
